Values quoted from earlier work, collected in paper PMC4886219, “Bioengineered kidney tubules efficiently excrete uremic toxins” (Scientific Reports, 2016).

Conditions: cited from earlier work

**Q.** With `NS(=O)(=O)c1cc(C(=O)O)c(NCc2ccco2)cc1Cl` [Furosemide] as the molecule, how does the protein bound read?
**A.** The protein bound was “approx. 98%”.
